Residue numbers refer to the chain shown, from its start. In names and notes the source's numbering stands. Results are given in words; binding and its absence hold for the method and conditions named. Binding seen in cells or lysates may run through a third protein. Some results given as binding are weak or reduced against the parent protein; the word gives no strength. For some of these results: Tags and fused reporters may be left off the sequences shown.
Tests used:
[1] = target: NIK- and IKK-β-binding protein (NIBP), endogenous (human (endogenous in HCT116 and RKO)) (UniProt Q96Q05); assay: co-IP; endogenous RNF138 and NIBP, HCT116 total lysates and nuclear extracts; IgG as control
[2] = target: NIK- and IKK-β-binding protein (NIBP), endogenous (human (endogenous in HCT116 and RKO)) (UniProt Q96Q05); assay: proximity ligation; endogenous RNF138 and NIBP in HCT116 and RKO cells, confocal images; IgG as controls
[3] = target: HA-NIBP (UniProt Q96Q05); assay: co-IP; HA-NIBP with full-length or truncated Flag-RNF138 mutants in 293T cells

Sequences of proteins named here, by UniProt entry; tags and fusion partners are left off.
UniProt Q96Q05: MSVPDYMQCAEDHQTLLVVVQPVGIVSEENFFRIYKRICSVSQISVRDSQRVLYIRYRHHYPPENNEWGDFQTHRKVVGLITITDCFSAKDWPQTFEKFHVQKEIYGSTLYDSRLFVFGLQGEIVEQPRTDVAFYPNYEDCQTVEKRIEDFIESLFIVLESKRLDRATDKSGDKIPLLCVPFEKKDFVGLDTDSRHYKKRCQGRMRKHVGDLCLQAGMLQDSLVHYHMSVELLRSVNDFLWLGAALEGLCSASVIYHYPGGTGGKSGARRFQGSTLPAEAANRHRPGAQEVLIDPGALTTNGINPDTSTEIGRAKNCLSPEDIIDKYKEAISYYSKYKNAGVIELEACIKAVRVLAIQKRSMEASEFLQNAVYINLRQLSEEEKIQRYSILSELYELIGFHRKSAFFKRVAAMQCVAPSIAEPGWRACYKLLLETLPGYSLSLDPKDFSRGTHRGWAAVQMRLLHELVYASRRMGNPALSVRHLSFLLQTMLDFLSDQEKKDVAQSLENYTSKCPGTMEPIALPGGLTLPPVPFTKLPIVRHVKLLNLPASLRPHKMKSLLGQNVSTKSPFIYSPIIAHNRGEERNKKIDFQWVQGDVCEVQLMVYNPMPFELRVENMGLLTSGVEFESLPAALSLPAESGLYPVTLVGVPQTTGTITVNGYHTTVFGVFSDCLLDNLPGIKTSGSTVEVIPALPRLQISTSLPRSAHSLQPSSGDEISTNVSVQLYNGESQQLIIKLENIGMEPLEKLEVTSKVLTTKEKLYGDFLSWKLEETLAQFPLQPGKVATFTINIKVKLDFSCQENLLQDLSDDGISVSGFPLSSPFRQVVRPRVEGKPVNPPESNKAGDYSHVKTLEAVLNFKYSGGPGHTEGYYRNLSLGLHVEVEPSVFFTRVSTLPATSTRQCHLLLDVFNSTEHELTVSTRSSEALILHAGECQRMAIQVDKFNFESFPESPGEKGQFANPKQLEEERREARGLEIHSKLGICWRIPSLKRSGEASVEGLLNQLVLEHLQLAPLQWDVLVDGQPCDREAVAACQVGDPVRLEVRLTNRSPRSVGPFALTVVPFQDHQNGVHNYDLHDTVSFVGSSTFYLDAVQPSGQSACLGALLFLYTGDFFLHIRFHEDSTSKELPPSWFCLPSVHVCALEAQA

B1: RING finger protein 138 (RNF138), endogenous (protein, UniProt Q8WVD3 1-245)
chain: MAEDLSAATSYTEDDFYCPVCQEVLKTPVRTTACQHVFCRKCFLTAMRESGAHCPLCRGNVTRRERACPERALDLENIMRKFSGSCRCCAKQIKFYRMRHHYKSCKKYQDEYGVSSIIPNFQISQDSVGNSNRSETSTSDNTETYQENTSSSGHPTFKCPLCQESNFTRQRLLDHCNSNHLFQIVPVTCPICVSLPWGDPSQITRNFVSHLNQRHQFDYGEFVNLQLDEETQYQTAVEESFQVNI
In the case of B1, the binding [1] is reported as “binds” and the binding [2] is reported as “binds”.

B2: Flag-RNF138 full-length (protein, UniProt Q8WVD3 1-245)
chain: B1 chain
With B2 the binding [3] was “binds”.

B3: Flag-RNF138 catalytic cysteines C/A mutant (C18A/C54A) (protein, UniProt Q8WVD3 1-245)
chain: B1 chain with C18A, C54A
In the case of B3, the binding [3] is reported as “binds”.

Source: paper PMC9192753
